Our source for the binding values is paper PMC8665361.

Chains of the proteins cited; added tags and fusions are not shown. Lines headed by an entry give the natural chain unless they say otherwise; changes in a name come on top.
UniProt Q14790: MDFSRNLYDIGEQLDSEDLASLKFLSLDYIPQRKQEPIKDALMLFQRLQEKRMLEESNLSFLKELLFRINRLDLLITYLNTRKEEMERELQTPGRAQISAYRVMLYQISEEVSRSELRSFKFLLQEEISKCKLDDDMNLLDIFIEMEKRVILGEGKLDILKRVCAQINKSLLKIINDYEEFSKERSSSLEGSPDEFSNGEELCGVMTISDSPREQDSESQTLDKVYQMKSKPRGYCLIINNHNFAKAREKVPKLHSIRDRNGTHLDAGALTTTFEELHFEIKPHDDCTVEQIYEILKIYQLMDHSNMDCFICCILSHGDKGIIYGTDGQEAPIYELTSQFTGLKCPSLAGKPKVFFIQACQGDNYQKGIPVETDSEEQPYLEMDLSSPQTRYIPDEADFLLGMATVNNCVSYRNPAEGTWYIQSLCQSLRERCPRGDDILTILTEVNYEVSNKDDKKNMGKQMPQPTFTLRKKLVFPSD

The target in test [1] is T1, endogenous FBXO7 (HEK293 cells) (human (endogenous in HEK293)) (UniProt Q9Y3I1).
T1 sequence: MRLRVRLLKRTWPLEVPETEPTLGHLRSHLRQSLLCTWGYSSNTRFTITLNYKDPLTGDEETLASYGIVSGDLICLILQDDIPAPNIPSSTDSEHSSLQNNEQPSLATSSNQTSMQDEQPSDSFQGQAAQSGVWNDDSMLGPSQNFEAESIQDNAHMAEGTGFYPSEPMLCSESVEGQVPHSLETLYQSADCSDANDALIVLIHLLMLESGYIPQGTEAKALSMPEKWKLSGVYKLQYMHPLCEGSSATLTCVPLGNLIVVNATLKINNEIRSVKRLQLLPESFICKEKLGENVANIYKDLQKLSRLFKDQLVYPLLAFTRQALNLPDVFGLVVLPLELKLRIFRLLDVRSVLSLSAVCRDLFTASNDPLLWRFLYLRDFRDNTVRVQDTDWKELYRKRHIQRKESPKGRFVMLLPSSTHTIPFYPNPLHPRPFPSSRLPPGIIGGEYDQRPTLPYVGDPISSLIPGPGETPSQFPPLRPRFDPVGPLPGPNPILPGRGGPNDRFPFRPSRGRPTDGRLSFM
Nature of the test: co-IP; HEK293 cells transfected 24 h with FLAG- or HA-tagged catalytically inactive caspases; endogenous FBXO7; text: IP with anti-FLAG or anti-HA and blot with anti-FBXO7; legend: IP with anti-FBXO7.

Test [2] addresses FLAG-tagged FBXO7 deletion mutant lacking the F-box (human) (UniProt Q9Y3I1). Nature of the test: co-IP; HEK293 cells transfected with caspase 8-V5/His and FLAG-FBXO7-WT or a deletion mutant; IP with anti-FLAG, blot with anti-V5; Fig. S3B.

No constants are given. Whether binding was seen depends on the method and setting. Binding seen in cells or lysates may run through a third protein. For part of these data: Binding can be weak; no strength is given.

Turning to FLAG-caspase 1-C284A (enzyme), the binding entry in test [1] is recorded as “no binding”. On the same count and under the same terms, under FLAG-caspase 2-C303A (enzyme) stands “no binding”. Regarding “caspase 8-V5/His (from UniProt Q14790 1-479) (enzyme)”, the binding result in test [2] is recorded as “binds”.
